Measurements published in US20070155782A1, “Nk-1 receptor antagonists anesthesia recovery” (priority 2004, published 2007).

Columns and labels:
mature mongrel dogs = experiment: Experiment A: anesthetic recovery in dogs, 1.0 mg/kg compound of Formula Ia vs saline control; type: in vivo
Protocol: (§1) The patients utilized in the study were maintained in standard facilities with appropriate heating and ventilation. All dogs were placed under general anesthesia. The duration of anesthesia, time to extubation and time to sternal recumbency were recorded. Also noted were behaviors indicative of dysphoria such as vocalization and purposeless movement. A visual analog scale (“VAS”) was used to score the “quality” of the entire recovery period.
(§2) As used herein, the term “duration of anesthesia” is the time in minutes elapsed between intubation and cessation of anesthetic gases.
(§3) As used herein, the term “time to extubation” is the time in minutes elapsed between cessation of anesthetic gases and the need for removal of the endotracheal tube due to spontaneous swallowing. […]
(§4) Statistical Analysis. […] Duration of anesthesia, time to extubation and time to sternal recumbency data were analyzed using a paired t-test for means in Excel. Recovery VAS data were analyzed using SAS Statistical Software.
Experimental mature mongrel dogs, both male and female, weighing about 16-26 kilograms, were subcutaneously administered 1.0 mg/kg compound of Formula Ia one hour prior to preanesthetic administration. […] The duration of anesthesia, time to extubation and time to sternal recumbency were recorded. The patients were monitored continuously during the anesthetic and recovery periods. […]

geriatric beagles = experiment: Experiment B: recovery from general anesthesia in beagle dogs, 0.5 mg/kg compound of Formula Ia; type: in vivo
Protocol: as §1, §2, §3, §4
Fifteen experimental geriatric beagles, weighing 9-16 kilograms and undergoing anesthesia for dental prophylaxis, were used in this study. […] The duration of anesthesia, time to extubation and time to sternal recumbency were recorded. […]
The patients were monitored continuously during the anesthetic and recovery periods.

**Q.** Which “Duration of Anesthesia” value (mature mongrel dogs; 1 mg/kg SC one hour prior to preanesthetic, individual dogs) does the source give for `COc1ccc(C(C)(C)C)cc1CN[C@H]1C2CCN(CC2)[C@H]1C(c1ccccc1)c1ccccc1` [Compound of Formula Ia, (2S,3S)-2-benzhydryl-N-(5-tert-butyl-2-methoxybenzyl)quinuclidin-3-amine] here?
**A.** 30 min (10×) and 29 min and 34 min

**Q.** And the “Duration of Anesthesia” value (mature mongrel dogs; 1 mg/kg SC, Mean ± SD of 12 dogs)?
**A.** 30 ± 1 min

**Q.** What about the “Duration of anesthesia, experimental vs control group” value (geriatric beagles; 0.5 mg/kg SC) of the same compound?
**A.** no statistical difference

**Q.** And the “Duration of Anesthesia Mean ± SD” value (geriatric beagles; 0.5 mg/kg SC at time of pre-anesthetic medication, beagle dogs)?
**A.** 73.43 ± 17.97 min

“And” between values parts separate entries of the source, which are not always exact repeats. Identical values can stand only once.
